# Measurements published in PubChem BioAssay AID2685 (National Center for Advancing Translational Sciences (NCATS), 2010).
# The whole screen tested about 320,000 compounds, of which about 2,100 (0.66%) were called active. Inconclusive results, whose numbers are uncertain, are shown with a selection of clear calls. The call rests on the fitted dose curve; in most records, active means well fitted inhibition curve with a large enough effect in the signal ratio, with a control signal flat (not every such curve was filed as active); inconclusive means small, poorly fitted or top-dose-only effect, or effect the other way, or a change in a side signal; inactive means flat fitted curve, though single readings scatter; the % refers to the signal ratio. Potencies of inconclusive entries are doubtful fits and often do not repeat.
# Assay: qHTS Assay for Lipid Storage Modulators in Drosophila S3 Cells
# Conditions: BODIPY lipid droplet fluorescence, 18-24 h, cells fed with added oleic acid; lipid storage change, negative = inhibition: at 46.1 µM (top of the series) unless noted
# Method in brief: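 Drosophila S3 cells loaded with oleic acid (400 uM, as added) and compounds at several concentrations; lipid droplets imaged by 488-nm laser-scanning cytometry, 500–530 nm intensity and object ratio to cell channel. Percent activity normalized to 20 uM Triacsin C.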
# On the % scale 0 is the no-effect control and ±100 the full control effect; potency means the concentration at half of the fitted maximal effect.
Compound,"lipid storage change, negative = inhibition",Potency
CC1(C)Cc2c(sc3ncn(N)c(=N)c23)CO1,inconclusive: 3.14%,
CCOC(=O)NC(=O)/C(C#N)=C\NNc1ncc(C(F)(F)F)cc1Cl,inconclusive: -46.9%,
O=S(=O)(c1ccccc1)N1CCN(c2ncnc3scc(-c4ccccc4)c23)CC1,inconclusive: -93.4%,
Cc1ccc(S(=O)(=O)NCCNC(=O)c2nonc2N)cc1,inconclusive: 33.9%,
Cc1ccc(-c2nc3ncccn3c2NC(=O)C2CC2)cc1,inconclusive: -20.8%,
O=C1CC(/C=C/c2ccc(Cl)cc2)=Nc2ccccc2N1,,"inconclusive: 2.06 µM [rising, full curve, poor fit]"
O=C1CC(c2ccc(Cl)cc2)n2nc(N3C(=O)c4ccccc4C3=O)nc2N1 (stereo unspecified),,"inconclusive: 4.61 µM [rising, single point]"
NC(=O)COC(=O)CCCSc1nc2ccccc2s1,inconclusive: -20.7% [at 9.22 µM],
O=C(N/N=C/c1cccc(NC(=O)c2ccc(Cl)cc2)c1)c1cccc(O)c1,inconclusive: 23.7%,
COc1ccc(NS(=O)(=O)c2ccc3oc(SCC(N)=O)nc3c2)cc1,inconclusive: 120%,
CC(C)C(OC(=O)c1ccco1)C(=O)NC1CCCC1 (stereo unspecified),inconclusive: 206%,
Cc1ccc(S(=O)(=O)N/N=C(\c2ccccc2)c2cccnc2)cc1,inconclusive: 7.37%,
C/C=C/C(=O)OCC(=O)Nc1c(Cl)cccc1Cl,,"inconclusive: 3.66 µM [cytotoxic, full curve]"
O=C(c1ccccc1)c1ccc(OCC(=O)N2CCOCC2)cc1,inconclusive: 25%,
COc1ccc(NC(=S)N2CCN(C(=O)c3ccco3)CC2)cc1,inconclusive: 8.13%,
Cc1ccc(N2C(=O)c3cccc4c([N+](=O)[O-])ccc(c34)C2=O)c2cccnc12,inconclusive: -29.2%,
c1ccc(-c2cc3c(N4CCN(c5ncccn5)CC4)ncnc3s2)cc1,,"inconclusive: 4.11 µM [cytotoxic, partial curve, poor fit]"
Cc1c(N=Cc2ccc[nH]2)c(=O)n(-c2ccccc2)n1C,inconclusive: 80.1%,
O=C(c1ccc([N+](=O)[O-])cc1Cl)N1CCN(c2ccccn2)CC1,inconclusive: 14.7%,
Cc1ccc(C(=O)Cn2c(C(=O)O)cc3ccccc32)cc1,inconclusive: 63.8%,
CC(C)(C)c1ccc(-c2nc(C=O)c3ccccn23)cc1,inconclusive: 36.7%,
COc1cc(C(=O)NCC(c2ccco2)N(C)C)cc(OC)c1OC (stereo unspecified),inconclusive: 10.4%,
CCOc1cc(S(=O)(=O)n2ccnc2)ccc1Cl,inconclusive: -56.9% [at 0.00295 µM],
COc1ccc(C(=O)NCCc2ccc(Cl)cc2)cc1S(=O)(=O)N1CCCCC1C (stereo unspecified),inconclusive: 19.5%,
Cn1cc(CN2CCC(n3nccc3NC(=O)C3CCCC3)CC2)cn1,inconclusive: -2.69%,
O=C(CCc1ccc(S(=O)(=O)N2CCOCC2)cc1)Nc1nccs1,,"inconclusive: 18.4 µM [activator, single point]"

Compound,"lipid storage change, negative = inhibition",Potency
CCc1ccc(C(=O)N2CCN(c3ccc(NC(=O)c4cccnc4)cc3)CC2)cc1,inconclusive: -19.9%,
Cc1cccc(NC(=S)NC23CN4CN(CN(C4)C2)C3)c1,inconclusive: 6.02%,
COc1ccc(CCNC(=O)C2CCCN2S(=O)(=O)c2cccc3nsnc23)cc1OC (stereo unspecified),,"inconclusive: 7.31 µM [activator, partial curve, poor fit]"
COc1ccc(C2CC(c3ccc(OC)cc3)n3nc(NC(=O)c4ccco4)nc3N2)cc1 (stereo unspecified),inconclusive: 1.62%,
O=C1CC(N2CCC(c3nc4ccccc4o3)CC2)C(=O)N1 (stereo unspecified),inconclusive: -26.4%,
CCOCC(=O)N1CCC(Cc2ccccc2)CC1,inconclusive: 9.36%,
COc1ccccc1N1CCN(CCCCN2C(=O)C3CCCCN3C2=O)CC1 (stereo unspecified),,"inconclusive: 29.1 µM [activator, single point]"
CCOC(=O)C(=CNc1ccc2c(c1)c1ccccc1n2CC)C(=O)OCC,inconclusive: 10.2%,
O=C(O)Cn1c(P(=O)(O)c2ccccc2)nc2ccccc21,inconclusive: 103%,
Cc1ccsc1C(=O)N1CCN(S(=O)(=O)c2cccs2)CC1,,"inconclusive: 0.103 µM [activator, full curve, poor fit]"
Cc1ccccc1C(=O)Nc1ccc(Br)cn1,,"inconclusive: 0.92 µM [falling, full curve, poor fit]"
CCCc1c(O)nc(SCC(=O)O)[nH]c1=O,inactive,
COc1ccc(OC)c(C2/C(=C(\O)c3ccc(OC)c(Cl)c3)C(=O)C(=O)N2CCN(C)C)c1 (stereo unspecified),,"inconclusive: 23.1 µM [falling, partial curve]"
COc1ccccc1-c1nc(C#N)c(N2CC(C)CC(C)C2)o1 (stereo unspecified),inconclusive: -41.7% [at 0.369 µM],
COc1ccc(OC)c(NC(=O)C(=O)NCCC2=CCCCC2)c1,,"inconclusive: 18.4 µM [activator, single point]"
CCOC(=O)N1CCN(C(=O)c2ccc(N3CC4CC(C3)c3cccc(=O)n3C4)c(NC(=O)c3ccc(F)cc3)c2)CC1 (stereo unspecified),inconclusive: 66.2%,
CN(C(=O)CSC(=O)c1ccccc1)c1ccccc1,inconclusive: 11.6%,
N#C/C(=C\c1c(F)cccc1Cl)c1nn(-c2ccccc2)c(-n2cccc2)c1C#N,inconclusive: -0.802%,
COC(=O)c1cc2occc2n1Cc1nc(-c2ccccc2Cl)oc1C,,"inconclusive: 8.2 µM [activator, partial curve]"
CCCCN1CCc2c1nc1ccc(Br)cc1c2N,inconclusive: 199%,
Cc1cccc(NC(=O)CN2C(=O)CCSc3ccc(S(=O)(=O)N4CCOCC4)cc32)c1C,inconclusive: -1.75%,
COc1ccc(C)cc1NC(=O)CN1CCN(c2ccccn2)CC1,inconclusive: 7.96%,
CCOC(=O)c1cc(-c2ccccc2)n(CCC(=O)N2CCN(c3ccc(OC)cc3)CC2)c1C,inconclusive: -22.7%,
O=S1(=O)CC(O)C(Nc2ccccc2)C1 (stereo unspecified),inconclusive: -12.1%,
CSc1ccc(CNC(=O)CCn2ccc3cc(S(=O)(=O)N4CCCC4)ccc32)cc1,,"inconclusive: 32.6 µM [activator, single point]"
COc1ccc(-c2c(-c3ccc4c(c3)OCO4)noc2C)cn1,,"inconclusive: 7.31 µM [activator, partial curve]"

# Entries listed so far containing a thiophene ring, fused or not, in the order listed:
Compound,"lipid storage change, negative = inhibition",Potency
CC1(C)Cc2c(sc3ncn(N)c(=N)c23)CO1,inconclusive: 3.14%,
O=S(=O)(c1ccccc1)N1CCN(c2ncnc3scc(-c4ccccc4)c23)CC1,inconclusive: -93.4%,
c1ccc(-c2cc3c(N4CCN(c5ncccn5)CC4)ncnc3s2)cc1,,"inconclusive: 4.11 µM [cytotoxic, partial curve, poor fit]"
Cc1ccsc1C(=O)N1CCN(S(=O)(=O)c2cccs2)CC1,,"inconclusive: 0.103 µM [activator, full curve, poor fit]"

# Continuation.

Compound,"lipid storage change, negative = inhibition",Potency
CCC(C)n1ncn(-c2ccc(N3CCN(c4ccc(O)cc4)CC3)cc2)c1=O (stereo unspecified),inconclusive: -0.499%,
Cc1[nH]c(-c2ccc(F)cc2)cc1C(=O)N1CCN(c2ccccc2)CC1,,"inconclusive: 14.6 µM [falling, single point]"
Cc1ccc(C)c(S(=O)(=O)N2CCCCC2CCNC(=O)C(=O)NCc2ccco2)c1 (stereo unspecified),,"inconclusive: 18.4 µM [falling, single point]"
COc1ccc(CCNC(=O)COC(=O)c2ccc(N3CCCC3=O)cc2)cc1OC,,"inconclusive: 20.6 µM [falling, partial curve]"
Cc1ccccc1NC(=O)/C(C#N)=C/c1ccsc1,,"inconclusive: 16.4 µM [falling, single point]"
COc1ccc(NC(=O)CC2SC(N3CCOCC3)=NC2=O)cc1OC (stereo unspecified),inconclusive: 4.47%,
C=CCn1c(=O)/c(=C2/Sc3ccccc3N2CC)s/c1=C1/C(=O)NN=C1C,,"inconclusive: 29.1 µM [falling, single point]"
COc1cccc(NC(=O)c2cccc(C(=O)Nc3cccc(OC)c3)c2)c1,,"inconclusive: 0.731 µM [falling, partial curve, poor fit]"
CCOc1ccc(CCNS(=O)(=O)c2ccc(-c3ccc(=O)[nH]n3)o2)cc1OCC,,"inconclusive: 6.51 µM [falling, single point]"
CC1(C)CC(=O)C(N=Nc2c(Cl)cc(Cl)cc2Cl)=C(O)C1,inconclusive: 2.29%,
Cc1ccc(C(=O)CCC(=O)NCc2ccc(Cl)cc2)cc1,inconclusive: 1.98%,
Cc1[nH]nc(N=CC2=C(O)CC(c3ccco3)CC2=O)c1-c1ccccc1 (stereo unspecified),inconclusive: -19.3%,
CC1=C(C#N)C(c2ccccc2O)C(C#N)=C(C)N1,inconclusive: 16.9%,
CCOc1ccc(NC(=O)N2CCC(NC(=O)C(Cc3ccc(OC)c(OC)c3)NC(C)=O)CC2)cc1 (stereo unspecified),inconclusive: -4.48%,
CCN(c1ccc(OC)cc1)S(=O)(=O)c1cc(-c2cc(C)no2)ccc1OC,inconclusive: 45.6%,
CC(=O)N1c2ccc(S(=O)(=O)NCCC(=O)NCCc3ccc(C)cc3)cc2CC1C (stereo unspecified),,"inconclusive: 6.51 µM [activator, single point]"
COC(=O)c1ccc(NC(=O)C2CC(=O)OC2c2ccccc2)cc1 (stereo unspecified),inconclusive: 6.53%,
Cc1onc(-c2ccccc2Cl)c1C(=O)Nc1ccccc1N1CCOCC1,,"inconclusive: 2.31 µM [activator, full curve]"
CCCc1c(C)c2cc(C)ccc2[nH]c1=O,inconclusive: -19.5%,
CC(/C=C/c1ccco1)=N\NC(=O)COc1ccc(C)c(C)c1,inconclusive: 1.71%,
COc1ccc(CCNC(=O)CCc2ccc(S(=O)(=O)NCC(C)C)cc2)cc1,inconclusive: 19.5%,
Cc1cc(Cl)ccc1OCC(=O)Nc1ccccc1C(=O)N1CCOCC1,,"inconclusive: 29.1 µM [falling, single point]"
CCCCNC(=O)CSc1nc2ccc(Nc3nc(N4CCOCC4)nc(N4CCOCC4)n3)cc2s1,inconclusive: 2.19%,
Cc1cc(C)c(C)c(S(=O)(=O)NC(C)C(=O)O)c1C (stereo unspecified),,"inconclusive: 29.1 µM [falling, single point]"
